Laboratory results published in PubChem BioAssay AID248 (DTP/NCI, 2004).
The list shows only some results of the screen, not a fair sample: it gathers tests that were run many times, whatever their T/C, doses with no T/C, and many T/C values between a quarter and a half above the control. Further doses and runs are listed elsewhere. T/C gives the treated animals as a percentage of the vehicle group. Some doses have a count of surviving animals in place of a T/C: the source files T/C as zero there, which appears to mark a toxic dose or a test without result, not a measured value. Some survivor counts are full or nearly so, which does not show that the dose was tolerated: the source hardly ever lists a survival T/C far under the control, and the zero likely stands for such cases as well. Survivors were counted at the toxicity check, usually on the fifth day, unless a day is given; later deaths do not show. Schedule codes are those of the source, taken here to give the interval after Q, in days (D) or hours (H), and the number of doses after X. Some schedules carry Z or #; the key to these is not given. For survival time, the PubChem record calls one and a half times the control and up active, and a quarter to a half above the control has no call in these data; cut-offs in other NCI protocols can differ.

System: L1210 leukemia ip in BDF1 mice, survival T/C
Test: NCI In Vivo Anticancer Drug Screen. Data for tumor model L1210 Leukemia (intraperitoneal) in B6D2F1 (BDF1) mice
Conditions: T/C endpoint: mean survival time, higher T/C = longer survival
[1] = dose: 12.5 mg/kg/injection, schedule: Q01DX009 (ip), vehicle: Klucel (hydroxypropylcellulose) (HPC)
[2] = dose: 25.0 mg/kg/injection, schedule: Q01DX009 (ip), vehicle: Klucel (hydroxypropylcellulose) (HPC)
[3] = dose: 400.0 mg/kg/injection, schedule: Q04DX003 (ip), vehicle: Klucel (hydroxypropylcellulose) (HPC)
[4] = dose: 400.0 mg/kg/injection, schedule: Q01DX009 (ip), vehicle: saline
[5] = dose: 200.0 mg/kg/injection, schedule: Q01DX009 (ip), vehicle: saline
[6] = dose: 400.0 mg/kg/injection, schedule: Q01DX001 (ip), vehicle: carboxymethylcellulose (CMC)
[7] = dose: 100.0 mg/kg/injection, schedule: Q04DX002 (ip), vehicle: saline with Tween-80
[8] = dose: 400.0 mg/kg/injection, schedule: Q04DX003 (ip), vehicle: saline with Tween-80
[9] = dose: 300.0 mg/kg/injection, schedule: Q01DX001 (ip), vehicle: other

## CCC[CH2][Sn]1([CH2]CCC)[O]OC(c2ccccc2)[O]1 (centres undefined)
dose: 6.25 mg/kg/injection, schedule: Q01DX009 (ip), vehicle: Klucel (hydroxypropylcellulose) (HPC)
  survivor count: 0 of 6
[1]
  survivor count: 0 of 6
[2]
  survivor count: 0 of 6

## O=[N+]([O-])c1cc(Cl)c(Cl)c([N+](=O)[O-])c1Cl
dose: 100.0 mg/kg/injection, schedule: Q01DX009 (ip), vehicle: water
  survivor count: 0 of 6
dose: 100.0 mg/kg/injection, schedule: Q04DX003 (ip), vehicle: Klucel (hydroxypropylcellulose) (HPC)
  survivor count: 6 of 6
dose: 200.0 mg/kg/injection, schedule: Q01DX009 (ip), vehicle: water
  survivor count: 0 of 6
dose: 200.0 mg/kg/injection, schedule: Q04DX003 (ip), vehicle: Klucel (hydroxypropylcellulose) (HPC)
  survivor count: 1 of 6
dose: 400.0 mg/kg/injection, schedule: Q01DX009 (ip), vehicle: water
  survivor count: 0 of 6
[3]
  survivor count: 0 of 6

## COC(=O)C(Br)C(C)OC (centres undefined)
[4]
  survivor count: 6 of 6

## Cc1cc(CSC2=NCCCN2)c(C)cc1CSC1=NCCCN1
dose: 12.5 mg/kg/injection, schedule: Q01DX009 (ip), vehicle: saline
  survivor count: 0 of 6
dose: 25.0 mg/kg/injection, schedule: Q01DX009 (ip), vehicle: saline
  survivor count: 0 of 6
dose: 50.0 mg/kg/injection, schedule: Q01DX009 (ip), vehicle: saline
  survivor count: 0 of 6
dose: 100.0 mg/kg/injection, schedule: Q01DX009 (ip), vehicle: saline
  survivor count: 0 of 6
[5]
  survivor count: 0 of 6
[4]
  survivor count: 0 of 6

## CC(=O)Nc1ccc(OC(=O)Nc2cccc3ccccc23)cc1
[3]
  survivor count: 6 of 6

## N=c1ccccn1CC(O)COc1ccccc1 (centres undefined)
dose: 200.0 mg/kg/injection, schedule: Q01DX001 (ip), vehicle: carboxymethylcellulose (CMC)
  survivor count: 0 of 4
[6]
  survivor count: 0 of 4

## Cc1c(O)cccc1N(C)C
dose: 100.0 mg/kg/injection, schedule: Q04DX003 (ip), vehicle: saline
  survivor count: 6 of 6

## CC1(C)C2CCC(=O)OC1CC2 (centres undefined)
dose: 80.0 mg/kg/injection, schedule: Q01DX001 (ip), vehicle: saline
  survivor count: 1 of 4

## [Br][Hg][c]1ccccc1
dose: 150.0 mg/kg/injection, schedule: Q01DX001 (ip), vehicle: carboxymethylcellulose (CMC)
  survivor count: 0 of 6
dose: 300.0 mg/kg/injection, schedule: Q01DX001 (ip), vehicle: carboxymethylcellulose (CMC)
  survivor count: 0 of 6

## CC/C(=N/O)c1ccc(O)cc1O
dose: 400.0 mg/kg/injection, schedule: Q01DX009 (ip), vehicle: saline with Tween-80
  survivor count: 4 of 6

## S=C(n1ccnc1)n1ccnc1
dose: 335.0 mg/kg/injection, schedule: Q01DX009 (ip), vehicle: saline
  survivor count: 0 of 6

## O=S1OCCS1 (centres undefined)
dose: 4.7 mg/kg/injection, schedule: Q01DX Z (sc), vehicle: saline
  survivor count: 3 of 10
dose: 7.8 mg/kg/injection, schedule: Q01DX Z (sc), vehicle: saline
  survivor count: 6 of 10
dose: 21.6 mg/kg/injection, schedule: Q01DX Z (sc), vehicle: saline
  survivor count: 5 of 10

## O=[N+]([O-])CC(C[N+](=O)[O-])C(F)(F)C(F)(F)C(F)(F)F
dose: 200.0 mg/kg/injection, schedule: Q01DX001 (ip), vehicle: other
  survivor count: 0 of 4
dose: 400.0 mg/kg/injection, schedule: Q01DX001 (ip), vehicle: other
  survivor count: 0 of 4

## CCOC(OCC)C(=O)NNC(C)C
[5]
  survivor count: 6 of 6
[4]
  survivor count: 1 of 6

## NC(Cc1ccccc1)c1nn[nH]n1 (centres undefined)
dose: 125.0 mg/kg/injection, schedule: Q01DX Z (ip), vehicle: methylcellulose (MC)
  survivor count: 1 of 6

## O=C(C#Cc1ccccc1)N1CCCCC1
[7]
  T/C: 134 % of control

## NC(=O)Cn1cnc2c(=S)nc[nH]c21
dose: 50.0 mg/kg/injection, schedule: Q04DX003 (ip), vehicle: saline with Tween-80
  survivor count: 3 of 6
dose: 100.0 mg/kg/injection, schedule: Q04DX003 (ip), vehicle: saline with Tween-80
  survivor count: 3 of 6
dose: 200.0 mg/kg/injection, schedule: Q04DX003 (ip), vehicle: saline with Tween-80
  survivor count: 1 of 6
[8]
  survivor count: 0 of 6

## CN1C2CCC1CC(=O)C2
dose: 300.0 mg/kg/injection, schedule: Q01DX001 (ip), vehicle: saline
  survivor count: 0 of 6

## CCCCCCCCC(=O)[O][Hg][c]1ccccc1
dose: 150.0 mg/kg/injection, schedule: Q01DX001 (ip), vehicle: other
  survivor count: 0 of 6
[9]
  survivor count: 1 of 6

## CC1CN1C(=O)OCCOC(=O)N1CC1C (centres undefined)
dose: 300.0 mg/kg/injection, schedule: Q01DX Z (ip), vehicle: saline
  T/C: 136 % of control
dose: 500.0 mg/kg/injection, schedule: Q01DX001 (ip), vehicle: saline
  T/C: 127 % of control

## Cc1cc2c(cc1C)[n+]([O-])c1c(=O)[nH]c(=O)[nH]c1[n+]2[O-]
[7]
  survivor count: 1 of 3
dose: 200.0 mg/kg/injection, schedule: Q04DX002 (ip), vehicle: saline with Tween-80
  survivor count: 0 of 3
dose: 400.0 mg/kg/injection, schedule: Q04DX002 (ip), vehicle: saline with Tween-80
  survivor count: 1 of 3

## CN1CCc2ccc(Oc3cccc4c3CCN(C)C4)cc2C1
[9]
  survivor count: 0 of 6

## CCn1c(=O)oc2ccccc2c1=S
dose: 400.0 mg/kg/injection, schedule: Q04DX003 (ip), vehicle: saline
  survivor count: 4 of 4

## COc1ccc(C(=O)O)c(CC#N)c1
[3]
  survivor count: 6 of 6

## CCCCOCN1COCC1(C)C
[8]
  survivor count: 4 of 6

## CC(=O)NN
dose: 200.0 mg/kg/injection, schedule: Q01DX001 (ip), vehicle: saline
  survivor count: 3 of 6
dose: 400.0 mg/kg/injection, schedule: Q01DX001 (ip), vehicle: saline
  survivor count: 0 of 6

## COC(=O)C1CC2c3ccccc3C1c1ccccc12 (centres undefined)
dose: 264.0 mg/kg/injection, schedule: Q01DX001 (ip), vehicle: carboxymethylcellulose (CMC)
  survivor count: 1 of 6
[6]
  survivor count: 0 of 6
dose: 600.0 mg/kg/injection, schedule: Q01DX001 (ip), vehicle: carboxymethylcellulose (CMC)
  survivor count: 0 of 6

## Cc1ccc(C)c(NC(=O)c2ccc(Cl)c(Cl)c2)c1
[1]
  survivor count: 6 of 6
[2]
  survivor count: 6 of 6
dose: 100.0 mg/kg/injection, schedule: Q01DX009 (ip), vehicle: Klucel (hydroxypropylcellulose) (HPC)
  survivor count: 6 of 6
dose: 200.0 mg/kg/injection, schedule: Q01DX009 (ip), vehicle: Klucel (hydroxypropylcellulose) (HPC)
  survivor count: 6 of 6
